# Measured values from patent US8410065B2, “Macrolides and their use” (Basilea Pharmaceutica AG, priority 2008, dated 2013).
# pIC50: −log10 of the molar value. At least one structure is not confirmed: it was looked up by name or label, or the drawing left a doubt.
# Test system: human PDE4
# Test: PDE4 inhibition, in vitro enzymatic IMAP FP assay
# Type: biochemical
# Settings: PDE4 partially purified from undifferentiated human monocytic cells (U-937); fluorescently labeled cAMP substrate; 90 minutes at room temperature; fluorescence polarization
# Method: PDE4 specifically hydrolyzes cAMP and releases the product AMP. The potency of PDE inhibition by said agents is determined in an in vitro enzymatic assay. The assay is commercially available (IMAP™ FP assay Molecular Devices Corp. (MDS)) and is optimized for the use of human PDE4. Fluorescently labeled cAMP is hydrolyzed by PDE4 and in a second step, binding of labeled product to a large binding partner allowed product detection by fluorescence polarization (FP) measurements.
# PDE4 is partially purified from undifferentiated human monocytic cells (U-937) according to Thorpy et al. 1992 (J. Pharmacol. Exp. Ther. 263: 1195). […] In addition, PDE4 preparations are validated by inhibition studies with PDE4-specific and unspecific PDE inhibitors.
# Stock solutions of test compounds are made in DMSO and diluted in assay buffer (10 mM Tris-HCl, 10 mM MgCl2, 0.1% BSA 0.05% NaN3, pH 7.2) to the desired concentrations. The solutions used in the assay contained test compound in assay buffer with 2% DMSO.
# 10 μl of substrate (at a concentration recommended by the manufacturer) are mixed with 5 μl of appropriately diluted PDE and 5 μl of test compound solution. 5 μl of reaction buffer with 2% DMSO are used for control reactions. […] After incubation for 90 minutes at room temperature, 60 μl of binding reagent are added as specified by the manufacturer. Binding is allowed to proceed for 30 minutes and fluorescence polarization is measured. Dose dependence of PDE inhibition is measured by assaying dilution series of test compounds in duplicates. IC50 values are determined from the measured activities by curve fitting.
row,SMILES,pIC50
1,CC[C@H]1OC(=O)[C@H](C)[C@@H](O[C@H]2C[C@@](C)(OC)[C@@H](O)[C@H](C)O2)[C@H](C)[C@@H](O[C@@H]2O[C@H](C)C[C@@H](N3CCOCC3)[C@@H]2N(C)C)[C@](C)(OC)C[C@@H](C)C(=O)[C@H](C)[C@H]2[C@H](SCCN(Cc3c(Cl)cncc3Cl)c3ccc(OC)c(OC4CCCC4)c3)C(=O)O[C@@]21C [Example 11],7.85
2,CC[C@H]1OC(=O)[C@H](C)[C@@H](O[C@H]2C[C@@](C)(OC)[C@@H](O)[C@H](C)O2)[C@H](C)[C@@H](O[C@@H]2O[C@H](C)C[C@H]3[C@H]2OC(=O)N3C)[C@](C)(OC)C[C@@H](C)C(=O)[C@H](C)[C@H]2[C@H](SCCN(Cc3c(Cl)cncc3Cl)c3ccc(OC)c(OCC4CC4)c3)C(=O)O[C@@]21C [Example 13],7.74
3,CC[C@H]1OC(=O)[C@H](C)[C@@H](O[C@H]2C[C@@](C)(OC)[C@@H](O)[C@H](C)O2)[C@H](C)[C@@H](O[C@@H]2O[C@H](C)C[C@H](N(C)C(=O)N3CCOCC3)[C@H]2O)[C@](C)(OC)C[C@@H](C)C(=O)[C@H](C)[C@H]2[C@H](SCCOc3cc(C(=O)Nc4c(Cl)cncc4Cl)ccc3OC)C(=O)O[C@@]21C [Example 15],7.15
